According to article PMC2444027:
No constants are given. Whether binding was seen depends on the method and setting. In cells and extracts the contact can be indirect. For part of these data: Binding can be weak; no strength is given.

The chains behind the UniProt entries cited, without tags or fusion partners. Where a name states a change or a piece, a line headed by the entry shows the natural chain unless it says otherwise.
UniProt Q9FN02: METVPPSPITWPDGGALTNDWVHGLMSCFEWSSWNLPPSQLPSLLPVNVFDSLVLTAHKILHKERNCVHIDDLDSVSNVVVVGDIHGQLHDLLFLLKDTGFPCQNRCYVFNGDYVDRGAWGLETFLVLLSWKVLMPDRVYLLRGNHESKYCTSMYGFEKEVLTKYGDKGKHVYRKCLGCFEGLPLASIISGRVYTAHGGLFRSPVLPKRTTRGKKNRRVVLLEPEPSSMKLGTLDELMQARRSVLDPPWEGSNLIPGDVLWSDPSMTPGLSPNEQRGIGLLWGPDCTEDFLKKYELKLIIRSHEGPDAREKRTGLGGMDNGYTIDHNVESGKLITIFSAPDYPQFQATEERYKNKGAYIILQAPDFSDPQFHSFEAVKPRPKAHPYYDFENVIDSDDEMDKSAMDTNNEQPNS

Experiments:
[1] = biological target: AtPP7-GFP protein fusion (Arabidopsis) (UniProt Q9FN02); assay: condition: only dark-grown seedlings without the red light pulse; co-IP; extracts of 4-day dark-grown AtPP7-GFP seedlings without red pulse (dark control); anti-GFP agarose beads, 5 h at 4°C in darkness; Hepes 50 mM pH 7.9, 150 mM NaCl, 0.5% Triton X-100; blots with specific antibodies
[2] = biological target: AtPP7-GFP protein fusion (Arabidopsis) (UniProt Q9FN02); assay: co-IP; extracts of 4-day dark-grown AtPP7-GFP seedlings after a 5 min red light pulse (10 umol m^-2 s^-1, 22°C); anti-GFP agarose beads, 5 h at 4°C in darkness; Hepes 50 mM pH 7.9, 150 mM NaCl, 0.5% Triton X-100; blots with specific antibodies

B1: nucleotide diphosphate kinase 2 (NDPK2), endogenous (protein, UniProt O64903 63-231)
chain: ASSSAESGIFLPHLVASMEDVEETYIMVKPDGIQRGLVGEIISRFEKKGFKLIGLKMFQCPKELAEEHYKDLSAKSFFPNLIEYITSGPVVCMAWEGVGVVASARKLIGKTDPLQAEPGTIRGDLAVQTGRNIVHGSDSPENGKREIGLWFKEGELCKWDSALATWLRE
B1 was tested. Which binding [1] did it give?
Its binding is “no binding”.

And the binding [2]?
The binding was “binds”.

B2: phytochrome A (phyA), endogenous (receptor, UniProt P14712 1-1122)
chain: MSGSRPTQSSEGSRRSRHSARIIAQTTVDAKLHADFEESGSSFDYSTSVRVTGPVVENQPPRSDKVTTTYLHHIQKGKLIQPFGCLLALDEKTFKVIAYSENASELLTMASHAVPSVGEHPVLGIGTDIRSLFTAPSASALQKALGFGDVSLLNPILVHCRTSAKPFYAIIHRVTGSIIIDFEPVKPYEVPMTAAGALQSYKLAAKAITRLQSLPSGSMERLCDTMVQEVFELTGYDRVMAYKFHEDDHGEVVSEVTKPGLEPYLGLHYPATDIPQAARFLFMKNKVRMIVDCNAKHARVLQDEKLSFDLTLCGSTLRAPHSCHLQYMANMDSIASLVMAVVVNEEDGEGDAPDATTQPQKRKRLWGLVVCHNTTPRFVPFPLRYACEFLAQVFAIHVNKEVELDNQMVEKNILRTQTLLCDMLMRDAPLGIVSQSPNIMDLVKCDGAALLYKDKIWKLGTTPSEFHLQEIASWLCEYHMDSTGLSTDSLHDAGFPRALSLGDSVCGMAAVRISSKDMIFWFRSHTAGEVRWGGAKHDPDDRDDARRMHPRSSFKAFLEVVKTRSLPWKDYEMDAIHSLQLILRNAFKDSETTDVNTKVIYSKLNDLKIDGIQELEAVTSEMVRLIETATVPILAVDSDGLVNGWNTKIAELTGLSVDEAIGKHFLTLVEDSSVEIVKRMLENALEGTEEQNVQFEIKTHLSRADAGPISLVVNACASRDLHENVVGVCFVAHDLTGQKTVMDKFTRIEGDYKAIIQNPNPLIPPIFGTDEFGWCTEWNPAMSKLTGLKREEVIDKMLLGEVFGTQKSCCRLKNQEAFVNLGIVLNNAVTSQDPEKVSFAFFTRGGKYVECLLCVSKKLDREGVVTGVFCFLQLASHELQQALHVQRLAERTAVKRLKALAYIKRQIRNPLSGIMFTRKMIEGTELGPEQRRILQTSALCQKQLSKILDDSDLESIIEGCLDLEMKEFTLNEVLTASTSQVMMKSNGKSVRITNETGEEVMSDTLYGDSIRLQQVLADFMLMAVNFTPSGGQLTVSASLRKDQLGRSVHLANLEIRLTHTGAGIPEFLLNQMFGTEEDVSEEGLSLMVSRKLVKLMNGDVQYLRQAGKSSFIITAELAAANK
B2 was tested. Which binding [2] did it give?
Its binding is “binds”.
